According to the supplement of paper PMC5770031:
The list shows a part of the results. This data set is noisy: repeats of one test often differ as much as different tests do.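 Flies heterozygous for the ATM8 allele over a balancer chromosome carrying normal ATM were mated with each other on treated food. Parents laid eggs for 5–6 days and the young then developed for about 12 days, so both parents and larvae ate the compound. The read-out is the share of all emerged adults that carry two ATM8 copies, compared with 2% DMSO control vials. The paper called compounds neutral at 10–20% such offspring, harmful below 10%, and helpful above 20%.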

What follows are compounds tested on Drosophila melanogaster ATM8 (temperature-sensitive ATM allele) (assay: fraction of eclosed F1 progeny that are homozygous ATM8 (rescue of developmental lethality); higher = more rescue of ATM8 developmental lethality; extreme values may be limits of the assay). Conditions: compound concentration applied to food 0.2 mM; 21 °C.

SMILES | fraction of eclosed F1 progeny that are homozygous ATM8
Sc1nc2ccccc2s1 | 0.108
CCOCCOc1ccccc1C(N)=O | 0.152
COc1ccc2cc1Oc1ccc(cc1)C[C@H]1c3cc(c(OC)cc3CCN1C)Oc1c(OC)c(OC)cc3c1[C@H](C2)N(C)CC3 | 0
COC(=O)C[C@H]1C(C)(C)C(=O)[C@@H]2CC3=C4CC(=O)O[C@@H](c5ccoc5)[C@]4(C)CC[C@@H]3[C@@]1(C)C2=O | 0
CC(=O)N[C@@H]([C@@H](O)[C@H](O)[C@H](O)CO)[C@@H](O)CC(=O)C(=O)O | 0.136
CC1CC(Cl)CCC1C(=O)OC(C)(C)C (stereo not given) | 0.164
CCCCCCc1ccc(O)cc1O | 0.0732
CC1(C)NC(=O)N(c2ccc([N+](=O)[O-])c(C(F)(F)F)c2)C1=O | 0.167
CC(C)(c1ccc(O)cc1)c1ccc(O)cc1 | 0.158
C=C(C)[C@@H]1CC=C(C(=O)O)CC1 | 0.0606
COC(=O)[C@@H]1[C@H]2C[C@H]3c4[nH]c5ccccc5c4CCN3C[C@@H]2CC[C@@H]1O | 0.207
C[C@]12C=CC(=O)C=C1CC[C@@H]1[C@@H]2[C@@H](O)C[C@@]2(C)[C@H]1CC[C@]2(O)C(=O)COC(=O)CCC(=O)O | 0.0256
O=C(O)c1cc(-c2ccc(F)cc2F)ccc1O | 0.0769
COc1ccccc1N1CCNCC1 | 0.05
CCCCNC(=O)NS(=O)(=O)c1ccc(C)cc1 | 0.122
COC(=O)c1c(C)cc(O)cc1O | 0.038
CCOC(=O)OC(C)OC1=C(C(=O)Nc2ccccn2)N(C)S(=O)(=O)c2ccccc21 (stereo not given) | 0.2
CC(=O)[C@H]1CC[C@H]2[C@@H]3C[C@H](C)C4=CC(=O)CC[C@]4(C)[C@H]3[C@@H](O)C[C@]12C | 0.0312
CCn1cc(C(=O)O)c(=O)c2cnc(N3CCCC3)nc21 | 0.116
O=S(=O)(O)CCS | 0.0909
CCCCCCCCCCCCC[N+](C)(C)Cc1ccccc1 | 0.0645
CC(C)(C)NC[C@H](O)c1ccc(O)c(CO)c1 | 0.238
CCOc1cc(C=O)ccc1O | 0.145
CC(C)Nc1ncccn1 | 0.0682

3 records drawn at random from the list so far, as already listed:
SMILES | fraction of eclosed F1 progeny that are homozygous ATM8
CCOCCOc1ccccc1C(N)=O | 0.152
CC(C)(C)NC[C@H](O)c1ccc(O)c(CO)c1 | 0.238
COc1ccc2cc1Oc1ccc(cc1)C[C@H]1c3cc(c(OC)cc3CCN1C)Oc1c(OC)c(OC)cc3c1[C@H](C2)N(C)CC3 | 0

The listing continues.

SMILES | fraction of eclosed F1 progeny that are homozygous ATM8
COc1ccc(C(=O)/C=C/c2ccccc2)cc1 | 0.0392
C1CCN2C[C@@H]3C[C@H](CN4CCCC[C@@H]34)[C@H]2C1 | 0.107
CC(=O)OCC(=O)[C@@]12N=C(C)O[C@@H]1C[C@H]1[C@@H]3CCC4=CC(=O)C=C[C@]4(C)[C@H]3[C@@H](O)C[C@@]12C | 0.0606
CC(=O)Nc1ccc(CC(=O)O)cc1 | 0.122
Cc1nc2n(c(=O)c1CCN1CCC(c3noc4cc(F)ccc34)CC1)CCCC2 | 0.156
C=C1C[C@@H]2[C@H](CC[C@]3(C)C(=O)CC[C@@H]23)[C@@]2(C)C=CC(=O)C=C12 | 0
CCN1CC(CCN2CCOCC2)C(c2ccccc2)(c2ccccc2)C1=O (stereo not given) | 0
C=C1C(=O)O[C@@H]2C[C@@]3(C)CCC[C@H](C)C3=C[C@H]12 | 0.178
O=C(O)CCCCCCCCCCCC(=O)O | 0.175
CCCCCCCCCCCCCCCC[n+]1ccccc1 | 0.0682
N[C@@H](C(=O)N[C@@H]1C(=O)N2C(C(=O)O)=C(Cl)CS[C@H]12)c1ccccc1 | 0.0889
C=CCC1(C(C)CCC)C(=O)NC(=S)NC1=O (stereo not given) | 0.192
COc1ccc(C(=O)NCc2ccc(OCCN(C)C)cc2)cc1OC | 0.102
COc1ccc(-c2cc(C(F)F)nn2-c2ccc(S(N)(=O)=O)cc2)cc1F | 0.256
C[C@@H]1CC[C@@]2(OC1)O[C@H]1C[C@H]3[C@@H]4CC[C@@H]5C[C@@H](O)CC[C@]5(C)[C@H]4CC[C@]3(C)[C@H]1[C@@H]2C | 0.0625
OC[C@H]1O[C@@H](O[C@@H]2[C@@H](CO)OC(O)(CO)[C@H]2O)[C@H](O)[C@@H](O)[C@H]1O (mixture of isomers) | 0.118
c1ccc(/N=N/c2ccccc2)cc1 | 0
CN(C)[C@@H]1C(O)=C(C(N)=O)C(=O)[C@@]2(O)C(O)=C3C(=O)c4c(O)ccc(Cl)c4[C@@H](O)[C@H]3C[C@@H]12 | 0
NC(N)=O | 0.0638
COC(=O)[C@@H]1OC(=O)C2OC23[C@@]1(C)CCC1[C@@]2(C)CCC(=O)C(C)(C)C2C[C@@H](OC(C)=O)[C@]13C (stereo not given in full) | 0.17
Cn1c([N+](=O)[O-])cnc1COC(N)=O | 0.0465
CC(=O)O[C@@H]1CC[C@@]2(C)[C@@H](CC[C@@H]3[C@@H]2CC[C@]2(C)C(=O)CC[C@@H]32)C1 | 0.0408
O=C(CC(=O)c1ccccc1)c1ccccc1 | 0.108
Nc1cc(-c2ccncc2)c[nH]c1=O | 0.127

SMILES | fraction of eclosed F1 progeny that are homozygous ATM8
C[C@H]1C[C@@H]2[C@H]([C@@H](O)C[C@@]3(C)[C@H]2CC[C@]3(O)C(=O)COC(=O)CCC(=O)O)[C@@]2(C)C=CC(=O)C=C12 | 0.0569
COC(=O)C(N)CS (stereo not given) | 0.0926
CC(N)C12CC3CC(CC(C3)C1)C2 (stereo not given) | 0
Cc1cc(O)c(C=O)c2c1C(=O)Oc1c(COC(=O)/C=C/C(=O)O)c(O)c(C(=O)O)c(C)c1O2 | 0.0741
O=C1CC(c2ccc(O)cc2)Oc2ccccc21 (stereo not given) | 0.0952
CN(C)CCOC(=O)COc1ccc(Cl)cc1 | 0.136
CCCc1nc(C(C)(C)O)c(C(=O)O)n1Cc1ccc(-c2ccccc2-c2nnn[nH]2)cc1 | 0.325
O=C(OCc1ccccc1)c1ccccc1 | 0.0556
OC(CCN1CCCCC1)(c1ccccc1)C1CCCCC1 (stereo not given) | 0.0882
Cc1ccc2c(Cl)cc(Cl)c(O)c2n1 | 0.0789
N=C(N)N/N=C/c1c(Cl)cccc1Cl | 0.316
COc1ccc2[nH]c([S+]([O-])Cc3ncc(C)c(OC)c3C)nc2c1 (stereo not given) | 0
NCCCC(N)C(=O)O (stereo not given) | 0.111
c1ccc2c(c1)sc1ccccc12 | 0.093
O=P1(N(CCCl)CCCl)NCCCO1 (stereo not given) | 0.0278
CC(=O)Oc1c(C)c(C)c2c(c1C)CCC(C)(CCCC(C)CCCC(C)CCCC(C)C)O2 (stereo not drawn) [alpha-TOCHOPHERYL ACETATE [4mM]] | 0.0185
CC(=O)Nc1ccc(O)cc1 | 0.127
O=C(O)c1cc(O)c(=O)c2c(O)c(O)ccc2c1 | 0.255
O=S(=O)(O)CCCS(=O)(=O)O | 0.196
C=CCSCC(N)C(=O)O (stereo not given) | 0.163
COc1ccc2c(c1)OCC(Cc1ccc(OC)c(OC(C)=O)c1)C2=O (stereo not given) | 0.216
CN1C(=O)CCS(=O)(=O)C1c1ccc(Cl)cc1 (stereo not given) | 0.194
